Data from patent US20250236609A1, “VPS34 INHIBITORS AND METHODS OF USE THEREOF” (Deciphera Pharmaceuticals, LLC, priority 2023, published 2025).
Structures were worked out from names or drawings and are uncertain.

The chains behind the UniProt entries cited, without tags or fusion partners. Where a name states a change or a piece, a line headed by the entry shows the natural chain unless it says otherwise.
UniProt P42336, whole entry: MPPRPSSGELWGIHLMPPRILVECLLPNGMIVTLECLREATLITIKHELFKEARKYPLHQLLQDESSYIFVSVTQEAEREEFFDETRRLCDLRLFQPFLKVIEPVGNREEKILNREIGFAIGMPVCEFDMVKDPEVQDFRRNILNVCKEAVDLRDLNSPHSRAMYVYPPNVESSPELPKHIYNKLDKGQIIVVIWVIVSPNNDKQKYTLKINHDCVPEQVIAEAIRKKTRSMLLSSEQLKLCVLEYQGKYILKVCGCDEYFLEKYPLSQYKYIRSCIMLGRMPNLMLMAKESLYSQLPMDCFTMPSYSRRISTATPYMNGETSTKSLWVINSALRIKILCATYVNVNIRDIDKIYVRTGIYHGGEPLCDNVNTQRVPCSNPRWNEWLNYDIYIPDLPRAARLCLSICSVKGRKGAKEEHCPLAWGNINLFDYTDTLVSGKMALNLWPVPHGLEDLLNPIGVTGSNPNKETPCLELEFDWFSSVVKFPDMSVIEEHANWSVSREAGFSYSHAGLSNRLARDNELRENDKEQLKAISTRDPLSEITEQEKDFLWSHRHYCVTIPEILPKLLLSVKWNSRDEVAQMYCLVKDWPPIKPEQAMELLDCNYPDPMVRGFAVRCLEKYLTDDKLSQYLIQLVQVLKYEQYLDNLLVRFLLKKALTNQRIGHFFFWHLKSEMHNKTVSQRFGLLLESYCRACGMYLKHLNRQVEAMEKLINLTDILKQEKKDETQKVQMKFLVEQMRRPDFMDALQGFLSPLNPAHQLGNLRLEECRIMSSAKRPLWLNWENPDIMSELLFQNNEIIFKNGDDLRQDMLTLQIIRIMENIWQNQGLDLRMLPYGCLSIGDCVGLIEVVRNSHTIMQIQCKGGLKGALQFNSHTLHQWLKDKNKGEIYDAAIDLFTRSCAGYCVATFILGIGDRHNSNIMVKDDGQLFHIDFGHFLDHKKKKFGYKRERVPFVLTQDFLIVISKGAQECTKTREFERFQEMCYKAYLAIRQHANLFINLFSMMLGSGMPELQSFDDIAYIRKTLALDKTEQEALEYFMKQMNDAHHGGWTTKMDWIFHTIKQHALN
UniProt P42336, whole entry E542K: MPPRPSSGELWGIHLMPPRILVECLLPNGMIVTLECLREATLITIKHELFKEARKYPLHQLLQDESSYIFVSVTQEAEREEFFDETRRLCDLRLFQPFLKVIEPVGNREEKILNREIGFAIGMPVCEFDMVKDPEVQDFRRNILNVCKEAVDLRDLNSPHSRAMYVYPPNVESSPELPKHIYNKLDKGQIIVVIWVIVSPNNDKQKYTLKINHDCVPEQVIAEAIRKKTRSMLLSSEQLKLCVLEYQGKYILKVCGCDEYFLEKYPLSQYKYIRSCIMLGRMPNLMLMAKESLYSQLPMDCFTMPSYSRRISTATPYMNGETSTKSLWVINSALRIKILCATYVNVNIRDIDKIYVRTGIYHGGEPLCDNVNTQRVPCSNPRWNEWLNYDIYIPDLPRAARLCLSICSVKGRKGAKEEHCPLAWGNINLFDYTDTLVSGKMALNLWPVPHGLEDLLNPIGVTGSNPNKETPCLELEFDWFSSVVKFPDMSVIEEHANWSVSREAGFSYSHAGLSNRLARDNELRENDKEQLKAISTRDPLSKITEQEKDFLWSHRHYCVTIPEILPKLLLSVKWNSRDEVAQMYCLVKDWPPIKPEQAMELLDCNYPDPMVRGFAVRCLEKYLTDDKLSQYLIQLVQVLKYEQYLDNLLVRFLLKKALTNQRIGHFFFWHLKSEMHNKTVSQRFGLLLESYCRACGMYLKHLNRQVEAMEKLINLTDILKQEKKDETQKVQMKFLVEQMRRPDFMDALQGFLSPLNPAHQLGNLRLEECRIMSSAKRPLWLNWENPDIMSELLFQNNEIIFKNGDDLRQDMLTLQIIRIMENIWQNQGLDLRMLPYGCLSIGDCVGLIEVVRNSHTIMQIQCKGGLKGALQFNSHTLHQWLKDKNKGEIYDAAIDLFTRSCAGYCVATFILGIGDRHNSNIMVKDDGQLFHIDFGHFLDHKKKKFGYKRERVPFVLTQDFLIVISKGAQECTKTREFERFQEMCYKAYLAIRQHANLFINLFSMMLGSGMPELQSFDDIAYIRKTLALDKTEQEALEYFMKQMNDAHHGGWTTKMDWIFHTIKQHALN
UniProt P42336, whole entry E545K: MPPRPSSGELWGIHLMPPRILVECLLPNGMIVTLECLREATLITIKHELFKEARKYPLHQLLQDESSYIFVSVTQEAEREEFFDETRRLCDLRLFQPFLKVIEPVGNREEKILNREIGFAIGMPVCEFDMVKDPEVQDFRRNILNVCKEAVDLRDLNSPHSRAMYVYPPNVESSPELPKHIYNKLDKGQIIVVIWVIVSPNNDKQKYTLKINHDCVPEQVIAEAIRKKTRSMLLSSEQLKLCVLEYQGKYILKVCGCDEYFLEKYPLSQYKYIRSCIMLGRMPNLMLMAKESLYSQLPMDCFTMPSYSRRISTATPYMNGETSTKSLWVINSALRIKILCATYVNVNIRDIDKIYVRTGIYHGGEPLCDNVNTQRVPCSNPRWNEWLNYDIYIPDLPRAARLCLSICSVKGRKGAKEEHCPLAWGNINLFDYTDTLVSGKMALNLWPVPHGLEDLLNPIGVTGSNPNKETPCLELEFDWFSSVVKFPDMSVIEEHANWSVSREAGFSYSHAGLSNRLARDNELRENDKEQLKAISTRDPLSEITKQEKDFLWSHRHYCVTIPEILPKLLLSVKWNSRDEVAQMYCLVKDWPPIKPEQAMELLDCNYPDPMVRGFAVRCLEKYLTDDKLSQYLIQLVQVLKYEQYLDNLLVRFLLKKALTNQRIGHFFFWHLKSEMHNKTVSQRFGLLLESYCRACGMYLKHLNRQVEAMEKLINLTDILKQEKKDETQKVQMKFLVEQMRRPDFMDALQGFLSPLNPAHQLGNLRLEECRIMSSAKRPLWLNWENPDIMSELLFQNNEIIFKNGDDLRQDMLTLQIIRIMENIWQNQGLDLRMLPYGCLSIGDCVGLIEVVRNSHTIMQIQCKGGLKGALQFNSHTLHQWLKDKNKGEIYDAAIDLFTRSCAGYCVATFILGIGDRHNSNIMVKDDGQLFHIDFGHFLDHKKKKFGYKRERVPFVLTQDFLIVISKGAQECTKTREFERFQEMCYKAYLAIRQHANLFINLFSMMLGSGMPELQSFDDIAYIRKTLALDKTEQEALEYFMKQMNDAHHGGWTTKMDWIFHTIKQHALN
UniProt P42336, whole entry H1047R: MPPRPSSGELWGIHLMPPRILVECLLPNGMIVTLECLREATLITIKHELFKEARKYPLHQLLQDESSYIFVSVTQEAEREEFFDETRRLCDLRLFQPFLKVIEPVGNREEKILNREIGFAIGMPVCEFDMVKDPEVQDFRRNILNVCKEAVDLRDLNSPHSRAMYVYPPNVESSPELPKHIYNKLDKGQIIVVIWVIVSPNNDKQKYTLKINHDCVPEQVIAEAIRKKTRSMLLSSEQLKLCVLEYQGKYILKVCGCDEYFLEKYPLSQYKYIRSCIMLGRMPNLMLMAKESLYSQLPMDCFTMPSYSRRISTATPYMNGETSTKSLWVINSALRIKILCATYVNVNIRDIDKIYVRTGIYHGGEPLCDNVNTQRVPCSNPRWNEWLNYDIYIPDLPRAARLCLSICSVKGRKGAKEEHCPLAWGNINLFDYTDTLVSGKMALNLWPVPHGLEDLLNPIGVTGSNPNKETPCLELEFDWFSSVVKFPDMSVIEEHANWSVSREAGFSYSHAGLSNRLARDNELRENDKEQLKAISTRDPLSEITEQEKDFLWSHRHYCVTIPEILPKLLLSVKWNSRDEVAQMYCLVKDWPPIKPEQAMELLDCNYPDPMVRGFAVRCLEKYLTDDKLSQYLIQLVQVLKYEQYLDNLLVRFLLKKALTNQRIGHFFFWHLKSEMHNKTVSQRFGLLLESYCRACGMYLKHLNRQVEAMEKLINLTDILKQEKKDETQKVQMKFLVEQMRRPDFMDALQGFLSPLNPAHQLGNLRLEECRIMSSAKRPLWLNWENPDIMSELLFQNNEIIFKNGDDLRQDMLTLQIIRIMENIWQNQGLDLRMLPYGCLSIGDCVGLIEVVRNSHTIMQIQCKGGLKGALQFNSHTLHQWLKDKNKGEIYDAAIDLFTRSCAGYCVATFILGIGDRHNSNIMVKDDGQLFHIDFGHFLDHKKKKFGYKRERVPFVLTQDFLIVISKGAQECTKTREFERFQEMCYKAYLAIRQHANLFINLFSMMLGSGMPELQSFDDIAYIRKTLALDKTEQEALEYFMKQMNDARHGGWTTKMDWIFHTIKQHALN
UniProt P42338, whole entry: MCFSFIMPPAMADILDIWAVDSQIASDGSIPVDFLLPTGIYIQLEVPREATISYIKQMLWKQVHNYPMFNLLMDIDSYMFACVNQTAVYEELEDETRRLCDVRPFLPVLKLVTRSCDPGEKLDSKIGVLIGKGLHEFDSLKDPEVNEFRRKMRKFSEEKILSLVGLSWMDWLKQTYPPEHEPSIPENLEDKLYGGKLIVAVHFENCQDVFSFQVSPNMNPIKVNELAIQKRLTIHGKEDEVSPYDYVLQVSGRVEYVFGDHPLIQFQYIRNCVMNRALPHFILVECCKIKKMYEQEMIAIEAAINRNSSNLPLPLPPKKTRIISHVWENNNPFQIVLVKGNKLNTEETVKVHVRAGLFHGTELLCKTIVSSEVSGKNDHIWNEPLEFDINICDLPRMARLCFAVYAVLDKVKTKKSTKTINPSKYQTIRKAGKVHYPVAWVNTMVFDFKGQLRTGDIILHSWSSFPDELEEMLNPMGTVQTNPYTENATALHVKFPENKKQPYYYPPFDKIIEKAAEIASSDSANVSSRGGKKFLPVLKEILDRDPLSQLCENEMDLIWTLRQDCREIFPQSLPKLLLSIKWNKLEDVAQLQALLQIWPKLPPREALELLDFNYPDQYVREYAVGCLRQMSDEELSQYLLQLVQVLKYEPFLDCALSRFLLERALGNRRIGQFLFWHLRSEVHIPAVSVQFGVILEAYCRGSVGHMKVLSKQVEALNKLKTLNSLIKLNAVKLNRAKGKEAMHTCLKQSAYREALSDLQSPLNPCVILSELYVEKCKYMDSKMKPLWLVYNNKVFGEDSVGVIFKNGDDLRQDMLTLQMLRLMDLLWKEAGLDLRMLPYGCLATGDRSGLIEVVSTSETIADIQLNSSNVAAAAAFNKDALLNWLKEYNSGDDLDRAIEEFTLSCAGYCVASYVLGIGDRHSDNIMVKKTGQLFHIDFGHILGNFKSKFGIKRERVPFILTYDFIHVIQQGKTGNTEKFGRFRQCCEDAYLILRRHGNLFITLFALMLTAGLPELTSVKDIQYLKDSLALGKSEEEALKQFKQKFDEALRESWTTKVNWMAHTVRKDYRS
UniProt P48736, whole entry: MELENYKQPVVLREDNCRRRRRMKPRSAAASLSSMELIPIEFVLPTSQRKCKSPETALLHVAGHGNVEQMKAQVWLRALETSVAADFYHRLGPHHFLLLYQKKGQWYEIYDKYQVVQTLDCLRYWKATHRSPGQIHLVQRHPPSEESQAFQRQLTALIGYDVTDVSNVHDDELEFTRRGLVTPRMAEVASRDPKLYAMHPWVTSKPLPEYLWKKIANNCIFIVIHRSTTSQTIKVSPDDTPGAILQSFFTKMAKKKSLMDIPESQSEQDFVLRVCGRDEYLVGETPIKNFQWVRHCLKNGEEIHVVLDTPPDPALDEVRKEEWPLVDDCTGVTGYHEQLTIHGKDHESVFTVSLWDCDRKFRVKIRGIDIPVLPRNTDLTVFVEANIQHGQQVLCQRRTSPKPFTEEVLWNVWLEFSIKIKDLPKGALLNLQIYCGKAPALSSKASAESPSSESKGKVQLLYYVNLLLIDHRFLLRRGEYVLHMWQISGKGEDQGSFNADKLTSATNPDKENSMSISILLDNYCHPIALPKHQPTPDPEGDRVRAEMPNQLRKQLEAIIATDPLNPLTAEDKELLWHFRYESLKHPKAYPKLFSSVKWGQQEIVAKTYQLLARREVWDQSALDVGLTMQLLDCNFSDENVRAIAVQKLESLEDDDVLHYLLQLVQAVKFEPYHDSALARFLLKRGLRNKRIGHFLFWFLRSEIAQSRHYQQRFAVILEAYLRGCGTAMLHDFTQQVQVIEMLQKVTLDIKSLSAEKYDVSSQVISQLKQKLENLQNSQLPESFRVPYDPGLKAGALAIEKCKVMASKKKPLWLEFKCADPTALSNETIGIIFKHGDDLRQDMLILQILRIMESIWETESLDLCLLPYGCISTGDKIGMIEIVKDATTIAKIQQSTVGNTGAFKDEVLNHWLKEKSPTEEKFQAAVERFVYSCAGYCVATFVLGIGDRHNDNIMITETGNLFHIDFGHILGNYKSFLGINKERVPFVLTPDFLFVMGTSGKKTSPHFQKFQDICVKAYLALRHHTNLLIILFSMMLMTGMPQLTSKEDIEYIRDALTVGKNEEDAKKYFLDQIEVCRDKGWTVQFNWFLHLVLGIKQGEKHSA

Legend:
VPS34 = VPS34 (Homo sapiens (Human), UniProt Q8NEB9); assay: Biochemical Assay for VPS34 (ADP-Glo kinase activity assay); conditions: read-out: VPS34 (Inhibition of biochemical activity of VPS34, IC50); 25 nM VPS34, 1 mM ATP, 1-hour incubation at 37° C.
Experimental: Activity of VPS34 kinase was determined using an ADP-Glo kinase activity assay (Promega Corp). Assays were conducted in 384-well plates (5 μL assay volume) using 25 nM VPS34 (ThermoFisher Scientific), […] PI:3PS Lipid Kinase Substrate (Promega Corp.), and 1 mM ATP in kinase buffer. Inhibition of VPS34 was measured by adding serial diluted test compound (final assay concentration of 0.1% DMSO) followed by a 1-hour incubation at 37° C. ADP-Glo reagent was then added ([…]) followed by a 40 min incubation at rt. Kinase detection reagent was then added ([…]) and followed by a 60 min incubation at rt. Luminescence was then detected. The RLU at each compound concentration of was converted to percent inhibition using controls (i.e., reaction with no test compound and reaction with a known inhibitor) and IC50 values were calculated by fitting a four-parameter sigmoidal curve to the data using GeneData Screener software.
VPS34 Protein Sequence (Full Length with GST Tag)

[1] = target: PI3K (p110α (E542K)/p85α) (Homo sapiens (Human), UniProt P42336, E542K); assay: Lipid kinase selectivity panel (Reaction Biology); format: biochemical; conditions: 1 μM compound, single dose duplicates, 10 μM ATP
Experimental: (§1) The compounds of the present invention were tested in a standard lipid kinase selectivity panel: 16 other lipid kinases (Reaction Biology, Malvern, PA, USA), under conditions of non-disclosure, non-dissemination, and non-use. In brief, compounds (see Table 2) were tested at in single dose duplicates at 1 μM against lipid kinases, including PI3Kα, PI3Kβ, and PI3Kδ, and reactions were carried out at 10 μM ATP.

[2] = target: PI3K (p110α (E545K)/p85α) (Homo sapiens (Human), UniProt P42336, E545K); assay: Lipid kinase selectivity panel (Reaction Biology); format: biochemical; conditions: 1 μM compound, single dose duplicates, 10 μM ATP
Experimental: as §1

[3] = target: PI3K (p110α (H1047R)/p85α) (Homo sapiens (Human), UniProt P42336, H1047R); assay: Lipid kinase selectivity panel (Reaction Biology); format: biochemical; conditions: 1 μM compound, single dose duplicates, 10 μM ATP
Experimental: as §1

PI3K (p110α/p65α) = PI3K (p110α/p65α) (Homo sapiens (Human), UniProt P42336); assay: Lipid kinase selectivity panel (Reaction Biology); format: biochemical; conditions: 1 μM compound, single dose duplicates, 10 μM ATP
Experimental: as §1

PI3KC2α = PI3KC2α (Homo sapiens (Human), UniProt O00443); assay: Lipid kinase selectivity panel (Reaction Biology); format: biochemical; conditions: 1 μM compound, single dose duplicates, 10 μM ATP
Experimental: as §1

PI3Kb (p110β/p85α) = PI3Kb (p110β/p85α) (Homo sapiens (Human), UniProt P42338); assay: Lipid kinase selectivity panel (Reaction Biology); format: biochemical; conditions: 1 μM compound, single dose duplicates, 10 μM ATP
Experimental: as §1

PI3Kd (p110δ/p85α) = PI3Kd (p110δ/p85α) (Homo sapiens (Human), UniProt O00329); assay: Lipid kinase selectivity panel (Reaction Biology); format: biochemical; conditions: 1 μM compound, single dose duplicates, 10 μM ATP
Experimental: as §1

PI3Kg (p110γ) = PI3Kg (p110γ) (Homo sapiens (Human), UniProt P48736); assay: Lipid kinase selectivity panel (Reaction Biology); format: biochemical; conditions: 1 μM compound, single dose duplicates, 10 μM ATP
Experimental: as §1

PI3Kα (p110α/p85α) = PI3Kα (p110α/p85α) (Homo sapiens (Human), UniProt P42336); assay: Lipid kinase selectivity panel (Reaction Biology); format: biochemical; conditions: 1 μM compound, single dose duplicates, 10 μM ATP
Experimental: as §1

Structure (SMILES): COC(=O)Nc1cc(-c2cc(N3CCCC[C@@H]3C(F)(F)F)[nH]c(=O)c2)c(F)cn1
- IC50 (VPS34): 100 to 500 nM
- Percent inhibition relative to DMSO control, PI3K (p110α (E542K)/p85α) [1]: 30%
- Percent inhibition relative to DMSO control, PI3K (p110α (E545K)/p85α) [2]: 36%
- Percent inhibition relative to DMSO control, PI3K (p110α (H1047R)/p85α) [3]: 44%
- Percent inhibition relative to DMSO control, PI3K (p110α/p65α) (PI3K (p110α/p65α)): 33%
- Percent inhibition relative to DMSO control, PI3KC2α (PI3KC2α): 2%
- Percent inhibition relative to DMSO control, PI3Kb (p110β/p85α) (PI3Kb (p110β/p85α)): −7%
- Percent inhibition relative to DMSO control, PI3Kd (p110δ/p85α) (PI3Kd (p110δ/p85α)): 42%
- Percent inhibition relative to DMSO control, PI3Kg (p110γ) (PI3Kg (p110γ)): 41%
- Percent inhibition relative to DMSO control, PI3Kα (p110α/p85α) (PI3Kα (p110α/p85α)): 25%
